Substitutions are numbered along the chain they refer to. No constants are given. Whether binding was seen depends on the method and setting. Some results given as binding are weak or reduced against the parent protein; the word gives no strength.
B1: recombinant humanized anti-CD66c antibody Protein ID 3007 (Vk7 + VH6) (antibody, human IgG1, V domains shown)
VH: QVQLVQSGAEVKKPGASMKISCKASGYSFTDYTMNWVKQAPGQNLEWIGLINPFHGGTVSNQRFKVKATLTVDVSTNTAYMELSRLRSDDTAVYYCVRGDPVRHYYALAYWGQGTLVTVSS
VL: DIQMTQSPSTLSASVGDRVTITCGASENVYGTLNWYQRKPGKAPKLLIYGATNLADGVPSRFSGSGSGTEYTLTISSLQPDDFATYYCQNVLSAPYTFGGGTKLEIK
notes: also called hu 3007; #43
B2: recombinant humanized anti-CD66c antibody Protein ID 2938 (Vk5 + VH7) (antibody, human IgG1, V domains shown)
VH: B1 VH with K38R, N44G
VL: B1 VL with N34A, T69R
notes: also called hu 2938
B3: recombinant humanized anti-CD66c antibody Protein ID 3019 (Vk7 + VH10) (antibody, human IgG1, V domains shown)
VH: B1 VH with M18V, I20V, L70M
VL: B1 VL
notes: also called hu 3019; #51
B4: recombinant humanized anti-CD66c antibody Protein ID 3043 (Vk8 + VH6) (antibody, V domains shown)
VH: B1 VH
VL: B1 VL with G24R, V58M
notes: also called hu 3043; #71
B5: recombinant humanized anti-CD66c antibody Protein ID 3058 (Vk8 + VH11) (antibody, human IgG1, V domains shown)
VH: QVQLVQSGAEVKKPGASVKISCKASGYSFTDYTMHWVKQAPGQNLEWIGLINPFGGSTSYAQKFKGRVTMTRDTSTNTAYMELSRLRSDDTAVYYCVRGDPVRHYYALAYWGQGTLVTVSS
VL: B1 VL with G24R, V58M
notes: also called hu 3058; #86

Sequences of proteins named here, by UniProt entry; tags and fusion partners are left off. Residues count along the entry.
UniProt P40199, residues 35-320: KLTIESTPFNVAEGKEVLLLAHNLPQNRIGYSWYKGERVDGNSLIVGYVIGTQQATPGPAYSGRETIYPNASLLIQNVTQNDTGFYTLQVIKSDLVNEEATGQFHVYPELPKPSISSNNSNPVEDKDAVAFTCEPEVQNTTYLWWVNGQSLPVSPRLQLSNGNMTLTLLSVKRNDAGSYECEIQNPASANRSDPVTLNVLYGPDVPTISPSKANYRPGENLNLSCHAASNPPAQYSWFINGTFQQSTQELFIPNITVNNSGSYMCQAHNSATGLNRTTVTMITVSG

Target: Antigen CD66c (CEACAM6; Sino Biological, Inc.) (UniProt P40199)
Assay: ELISA, CEACAM6 coated 100 ng/well

Binder	binding
B1	binds
B2	binds
B3	binds
B4	binds
B5	binds
